The list shows only some results of the screen, not a fair sample: it is rich in T/C values a quarter to a half above the control, in often repeated tests (any T/C) and in doses without a T/C. Further doses and runs are listed elsewhere. T/C is the treated group as % of the vehicle group. Some doses have a count of surviving animals in place of a T/C: the source files T/C as zero there, which appears to mark a toxic dose or a test without result, not a measured value. Some survivor counts are full or nearly so, which does not show that the dose was tolerated: survival well below the control is almost never listed, so the zero probably covers shortened survival too. Survivors were counted at the toxicity check, usually on the fifth day, unless a day is given; later deaths do not show. Schedules are NCI's codes, read here as Q, the interval in days (D) or hours (H), X, the number of doses. Some doses were run more than once; the results are listed from low to high. Some schedule codes hold Z or #, which are not explained here. Some molecules as drawn cover several salts, stereoisomers or complexes of the source; a dose is that of the sample tested. For survival time, this PubChem deposit counts one and a half times the control or more as active, and values a quarter to a half above the control carry no call in these data; other NCI protocols may use other cut-offs.

This experiment concerns L1210 leukemia ip in BDF1 mice, survival T/C. The experiment in a line: NCI In Vivo Anticancer Drug Screen. Data for tumor model L1210 Leukemia (intraperitoneal) in B6D2F1 (BDF1) mice. The following applies: T/C endpoint: mean survival time, higher T/C = longer survival.
[1] abbreviates: dose: 200.0 mg/kg/injection, schedule: Q01DX009 (ip), vehicle: saline with Tween-80.
The mark [2] stands for this setting: dose: 200.0 mg/kg/injection, schedule: Q04DX002 (ip), vehicle: Klucel (hydroxypropylcellulose) (HPC).
The mark [3] stands for this setting: dose: 400.0 mg/kg/injection, schedule: Q04DX002 (ip), vehicle: Klucel (hydroxypropylcellulose) (HPC).
[4] abbreviates: dose: 400.0 mg/kg/injection, schedule: Q01DX009 (ip), vehicle: Klucel (hydroxypropylcellulose) (HPC).
[5] abbreviates: dose: 400.0 mg/kg/injection, schedule: Q04DX003 (ip), vehicle: saline.
The mark [6] stands for this setting: dose: 100.0 mg/kg/injection, schedule: Q01DX009 (ip), vehicle: saline.
Setting [7] is: dose: 200.0 mg/kg/injection, schedule: Q01DX009 (ip), vehicle: saline.
Setting [8] is: dose: 50.0 mg/kg/injection, schedule: Q01DX009 (ip), vehicle: Klucel (hydroxypropylcellulose) (HPC).

Regarding `C/C(=N/NC(N)=S)c1ccc(F)cc1`, the survivor count is, setting by setting: (dose: 37.5 mg/kg/injection, schedule: Q01DX009 (ip), vehicle: Klucel (hydroxypropylcellulose) (HPC)) 0 of 6; (dose: 75.0 mg/kg/injection, schedule: Q01DX009 (ip), vehicle: Klucel (hydroxypropylcellulose) (HPC)) 0 of 6; (dose: 150.0 mg/kg/injection, schedule: Q01DX009 (ip), vehicle: Klucel (hydroxypropylcellulose) (HPC)) 0 of 6; (dose: 300.0 mg/kg/injection, schedule: Q01DX009 (ip), vehicle: Klucel (hydroxypropylcellulose) (HPC)) 0 of 6.

Take `Cc1ccc(NCC(O)CN2CCOCC2)cc1` (configuration not stated): the survivor count runs as follows: (dose: 25.0 mg/kg/injection, schedule: Q04DX003 (ip), vehicle: saline) 6 of 6; (dose: 50.0 mg/kg/injection, schedule: Q04DX003 (ip), vehicle: saline) 4 of 6; (dose: 100.0 mg/kg/injection, schedule: Q04DX003 (ip), vehicle: saline) 0 of 6; (dose: 200.0 mg/kg/injection, schedule: Q01DX001 (ip), vehicle: other) 2 of 6; (dose: 400.0 mg/kg/injection, schedule: Q01DX001 (ip), vehicle: other) 0 of 6.

In the case of `N#CN1CCCC1`, the survivor count (dose: 100.0 mg/kg/injection, schedule: Q01DX Z (ip), vehicle: saline) was 1 of 6.

Regarding `COc1cccc(NC(=O)Nc2ccccc2C(F)(F)F)c1`, the survivor count was 6 of 6 (dose: 25.0 mg/kg/injection, schedule: Q01DX009 (ip), vehicle: saline with Tween-80); 6 of 6 (dose: 100.0 mg/kg/injection, schedule: Q01DX009 (ip), vehicle: saline with Tween-80); 6 of 6 under setting [1]; 6 of 6 (dose: 400.0 mg/kg/injection, schedule: Q01DX009 (ip), vehicle: saline with Tween-80).

Turning to `O=[N+]([O-])c1cc(Br)cc(Br)c1O`, the survivor count is 1 of 3 under setting [2] and 0 of 3 under setting [3].

On to `CS(=O)(=O)Nc1ccccc1N`, for which the survivor count under setting [4] is 2 of 6.

In the case of `COc1cc(CC#N)cc(OC)c1`, the survivor count under setting [1] is given as 3 of 3.

As for `CC(=O)CC(=O)Nc1ccc(Cl)cc1`, the T/C under setting [3] is 133 % of control.

As for `CCCCCCCCCCCCn1c(C)nc2ccccc21`, the survivor count (dose: 12.0 mg/kg/injection, schedule: Q03HX024 (ip), vehicle: saline) is 9 of 10; the survivor count (dose: 18.0 mg/kg/injection, schedule: Q03HX024 (ip), vehicle: saline) is 7 of 10; the survivor count (dose: 27.0 mg/kg/injection, schedule: Q03HX024 (ip), vehicle: saline) is listed as 0 of 10; the survivor count (dose: 40.0 mg/kg/injection, schedule: Q01DX009 (ip), vehicle: saline) was 7 of 10; the survivor count (dose: 40.0 mg/kg/injection, schedule: Q03HX024 (ip), vehicle: saline) is given as 0 of 10; the survivor count (dose: 54.0 mg/kg/injection, schedule: Q01DX001 (ip), vehicle: saline) is recorded as 9 of 10. Moreover, the survivor count runs as follows: (dose: 54.0 mg/kg/injection, schedule: Q04DX003 (ip), vehicle: saline) 7 of 10; (dose: 61.0 mg/kg/injection, schedule: Q01DX009 (ip), vehicle: saline) 0 of 10; (dose: 61.0 mg/kg/injection, schedule: Q03HX024 (ip), vehicle: saline) 0 of 10; (dose: 80.0 mg/kg/injection, schedule: Q01DX001 (ip), vehicle: saline) 0 of 4 and 7 of 10; (dose: 80.0 mg/kg/injection, schedule: Q04DX003 (ip), vehicle: saline) 7 of 10; (dose: 120.0 mg/kg/injection, schedule: Q01DX001 (ip), vehicle: saline) 4 of 10 and 6 of 10. Also, the survivor count is 2 of 10 and 7 of 10 (dose: 120.0 mg/kg/injection, schedule: Q04DX003 (ip), vehicle: saline); 0 of 10 (dose: 180.0 mg/kg/injection, schedule: Q01DX001 (ip), vehicle: saline); 1 of 10 (dose: 180.0 mg/kg/injection, schedule: Q04DX003 (ip), vehicle: saline); 0 of 10 (dose: 270.0 mg/kg/injection, schedule: Q01DX001 (ip), vehicle: saline); 1 of 10 (dose: 270.0 mg/kg/injection, schedule: Q04DX003 (ip), vehicle: saline); 0 of 10 (dose: 400.0 mg/kg/injection, schedule: Q01DX001 (ip), vehicle: saline). In addition, the survivor count is 0 of 10 under setting [5]; 0 of 10 (dose: 610.0 mg/kg/injection, schedule: Q01DX001 (ip), vehicle: saline); 0 of 10 (dose: 610.0 mg/kg/injection, schedule: Q04DX003 (ip), vehicle: saline).

On to `OC(COc1ccccc1)CN1CCN(c2ccccc2)CC1` (configuration not stated), for which the survivor count under setting [2] is recorded as 3 of 3.

On to `Cn1cnc2ncnn2c1=S`, for which the survivor count is 3 of 6 under setting [6], 0 of 6 under setting [7] and 4 of 6 under setting [5].

As for `Cc1cccc(NCc2ccc(Cl)cc2Cl)c1`, for the setting “dose: 200.0 mg/kg/injection, schedule: Q04DX003 (ip), vehicle: saline with Tween-80”, the survivor count is 6 of 6.

As for `C/C=C/C(=O)Nc1ccccc1F`, under setting [4], the survivor count was 3 of 6.

On to `[CH3][Sn]1([CH3])[CH2]CC[CH2]1`, for which the survivor count by setting is: (dose: 50.0 mg/kg/injection, schedule: Q01DX009 (ip), vehicle: saline) 1 of 3; under setting [6], 1 of 3; under setting [7], 0 of 3.

`CN(C)CCC=C1c2ccccc2-c2ccccc21`: the survivor count was 3 of 6 (dose: 200.0 mg/kg/injection, schedule: Q04DX003 (ip), vehicle: saline) and 1 of 6 under setting [5].

With `C=C1CC[N+]2(CCCC)CCCC12` (configuration not stated), the survivor count reads like this: under setting [8], 2 of 3; (dose: 100.0 mg/kg/injection, schedule: Q01DX009 (ip), vehicle: Klucel (hydroxypropylcellulose) (HPC)) 0 of 3; (dose: 200.0 mg/kg/injection, schedule: Q01DX009 (ip), vehicle: Klucel (hydroxypropylcellulose) (HPC)) 0 of 3.

As to `NCCCCCCN=C(N)C(N)=NCCCCCCN`, the survivor count runs as follows: (dose: 12.5 mg/kg/injection, schedule: Q01DX009 (ip), vehicle: Klucel (hydroxypropylcellulose) (HPC)) 0 of 6 and 3 of 6; (dose: 25.0 mg/kg/injection, schedule: Q01DX009 (ip), vehicle: Klucel (hydroxypropylcellulose) (HPC)) 0 of 6; (dose: 25.0 mg/kg/injection, schedule: Q04DX002 (ip), vehicle: saline) 0 of 3; under setting [8], 0 of 6; (dose: 50.0 mg/kg/injection, schedule: Q04DX002 (ip), vehicle: saline) 0 of 3; (dose: 50.0 mg/kg/injection, schedule: Q04DX003 (ip), vehicle: Klucel (hydroxypropylcellulose) (HPC)) 0 of 6. The survivor count by setting is: (dose: 100.0 mg/kg/injection, schedule: Q04DX002 (ip), vehicle: saline) 0 of 3; (dose: 100.0 mg/kg/injection, schedule: Q04DX003 (ip), vehicle: Klucel (hydroxypropylcellulose) (HPC)) 0 of 6; (dose: 200.0 mg/kg/injection, schedule: Q04DX002 (ip), vehicle: saline) 0 of 3; (dose: 200.0 mg/kg/injection, schedule: Q04DX003 (ip), vehicle: Klucel (hydroxypropylcellulose) (HPC)) 0 of 6; (dose: 400.0 mg/kg/injection, schedule: Q04DX002 (ip), vehicle: saline) 0 of 3; (dose: 400.0 mg/kg/injection, schedule: Q04DX003 (ip), vehicle: Klucel (hydroxypropylcellulose) (HPC)) 0 of 6. Moreover, for the setting “dose: 12.5 mg/kg/injection, schedule: Q04DX002 (ip), vehicle: saline”, the T/C was 127 % of control.

Values taken from PubChem BioAssay AID248 (DTP/NCI, 2004).
